Some of the results follow.

By UniProt entry, the sequences of proteins in these tests, tags left out.
UniProt Q0JBA9, entry or part of it: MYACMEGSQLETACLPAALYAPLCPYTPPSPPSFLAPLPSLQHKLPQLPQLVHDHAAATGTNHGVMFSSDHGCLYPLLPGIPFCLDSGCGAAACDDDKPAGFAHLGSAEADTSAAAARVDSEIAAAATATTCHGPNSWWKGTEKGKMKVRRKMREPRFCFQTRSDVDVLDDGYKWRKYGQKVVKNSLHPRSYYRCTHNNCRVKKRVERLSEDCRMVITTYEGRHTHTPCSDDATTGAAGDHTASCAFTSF

Results on 54 sequences are retold here after paper PMC7819943, “Rice protein-binding microarrays: a tool to detect cis-acting elements near promoter regions in rice”.

In the test the target is OsWRKY34 (Oryza sativa, UniProt Q0JBA9 1-250). The experiment in a line: protein-binding microarray (RPBM); PBS, 2% BSA, 51.3 ng/ul salmon testes DNA, 50 uM zinc acetate, 200 nM TF, 25 C, 1 h; high values mean tight binding. The settings on record: protein: recombinant; tags: N-terminal polyhistidine and DsRed monomer fusion (pET32a); label: CyDye5-dUTP incorporated in the synthesized complementary strand; 3' TTTTT single-stranded linker to array surface; dsDNA, one strand shown. Put shortly:
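The binding signal is fluorescence intensity per feature, in arbitrary units, read on an Axon 4000B scanner. Polyhistidine- and DsRed-tagged transcription factors (N-terminal fusions) from E. coli BL21-CodonPlus were purified on Ni–NTA and applied at 200 nM for 1 h at 25 °C to a double-stranded, BSA-blocked custom Agilent array in buffer with 50 µM zinc acetate.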
Regarding “TCGTCGTTGGGTCGCGGTCGTGGCTAAGCCGTTTCCTCAGCGGAGTCACCTAGTGCAG”, the binding signal is 8340 fluorescence intensity (a.u.). For “ATCCCATCCGGATTGCCACCCAACCAATCGCCATTTGCTTCGGAGTCACCTAGTGCAG” the value was 8530 fluorescence intensity (a.u.). For “GATGCCTTATTGTTATACTGTCATGGTTGGTTCGTTTTAACGGAGTCACCTAGTGCAG” the value was 8220 fluorescence intensity (a.u.); for “TTCCCCAAATTTTGGGTCATGGATTAGTTTCACGCTTATACGGAGTCACCTAGTGCAG”, 8110 fluorescence intensity (a.u.). For “TCGCTCGCCGGCAACGAGCGAGGCAGGGTGGGTGGGTGGTCGGAGTCACCTAGTGCAG” the value was 8670 fluorescence intensity (a.u.). For “GCTGTCGATGACTTTTTCAGTTGAAATCATTTAGTATTTGCGGAGTCACCTAGTGCAG”, the binding signal was 10600 fluorescence intensity (a.u.). For “GTCGCTTTTGCAAGTAAACGTCTTGTTACAATCTGCTTTTCGGAGTCACCTAGTGCAG” the value was 9540 fluorescence intensity (a.u.); for “GGTTGGGCGTCTCGTCCCGTCTCGTCTCGTCTCCCCACGACGGAGTCACCTAGTGCAG”, 8400 fluorescence intensity (a.u.).

As to “CTGTCTCCGCGCGCTCGAGCCGTCTGTCTGCTATGGAAGCCGGAGTCACCTAGTGCAG”, the binding signal is 8100 fluorescence intensity (a.u.). For “GAAAATCTGTGGGAGGGGAGGGGAGGGGACGAGGGGACAGCGGAGTCACCTAGTGCAG” the value was 19000 fluorescence intensity (a.u.); for “AGGTGTCTTGTGTCTGGTGGATTTTGCTTCGGAATGATGGCGGAGTCACCTAGTGCAG”, 8640 fluorescence intensity (a.u.); for “CCTCCGCCTTAGCATCATATCACTCGCGCCACCCAATTGCCGGAGTCACCTAGTGCAG”, 10200 fluorescence intensity (a.u.). For the sequence “CTTGGTTTATTTTGATTTGCTGACTATAACACTTGATTCTCGGAGTCACCTAGTGCAG”, the binding signal was 9570 fluorescence intensity (a.u.). For “CAATGAGATTTAATTTATGCACCATTATTTCTTTTTGTACCGGAGTCACCTAGTGCAG” the value was 9350 fluorescence intensity (a.u.); for “TCACCACCTGTCCATCCAGCGCGCGCCCGCCCGCCCGCCTCGGAGTCACCTAGTGCAG”, 9740 fluorescence intensity (a.u.). For “GCGTTTATATGTACAGACACTCAATGAATCGTTATATTCTCGGAGTCACCTAGTGCAG” the value was 9330 fluorescence intensity (a.u.). As to “ATTTACTCAGTCCAGAACCTTCGGCTAGCTGCTTGTTCTTCGGAGTCACCTAGTGCAG”, the binding signal is 8900 fluorescence intensity (a.u.). Take “CACTGAAACAAAACCTGATTTGTCAATTGTCATGTACTCACGGAGTCACCTAGTGCAG”: the binding signal was 8680 fluorescence intensity (a.u.). For “CCGGAACACTCACCGCGCGGTTCCTCCAGACATCAACCACCGGAGTCACCTAGTGCAG” the value was 8490 fluorescence intensity (a.u.); for “CTCTCCGGGCCCCACCTGTCGCCCTGGGCCCGCATGTCATCGGAGTCACCTAGTGCAG”, 9020 fluorescence intensity (a.u.). “CCAGATCCCGGATAGGCTCGCGTTTCTTGATTCGATGGTTCGGAGTCACCTAGTGCAG”: the binding signal was 8640 fluorescence intensity (a.u.). As to “AGATGTTGGTGACCTGGTGCGGGCGGCGGCGGCGGGAAATCGGAGTCACCTAGTGCAG”, the binding signal was 8860 fluorescence intensity (a.u.). For “TTACGTGACGCTATGCTGGTTACACCACCCTTTCATCTACCGGAGTCACCTAGTGCAG” the value was 8640 fluorescence intensity (a.u.). For “TGACAACCTCTCATACTTGTCTCTCTCGCGCACTTCCACCCGGAGTCACCTAGTGCAG” the value was 8080 fluorescence intensity (a.u.); for “CACCTATCGTACACACTGTGTCTTGGAGTTCGTGTTACAGCGGAGTCACCTAGTGCAG”, 8120 fluorescence intensity (a.u.).

With “TGCCCACGTGTCCGGCCCAATTAATTTCGTGAACCTTTGACGGAGTCACCTAGTGCAG”, the binding signal is 12600 fluorescence intensity (a.u.). For “GCGAGCGCCATCGATTGATCACTTTCAGGCCATTGGATCCCGGAGTCACCTAGTGCAG” the value was 10000 fluorescence intensity (a.u.). For “CTCTCTCTCCTAGAACCACCATTCAACCACTGTTTTCTCTCGGAGTCACCTAGTGCAG” the value was 12200 fluorescence intensity (a.u.); for “CCAACTCCGAACGCCTCTTCTTCTCCTCACCGCCGCCGAACGGAGTCACCTAGTGCAG”, 9650 fluorescence intensity (a.u.); for “TTTTTGCAGCGAGGTCCCTCAGGTTGCGTGGTATTTGCGTCGGAGTCACCTAGTGCAG”, 8120 fluorescence intensity (a.u.). As to “TGCCCGGCTTGTTGCGCCTAACATTGTCATGAACCAGTACCGGAGTCACCTAGTGCAG”, the binding signal is 8950 fluorescence intensity (a.u.).

Consider “GCCACTCATCGCCACCGCCGCCGCCTTTCTCTCATCCCAACGGAGTCACCTAGTGCAG”, for which the binding signal is 8600 fluorescence intensity (a.u.). For “TCGCTTGTGGTAGGTGTTGGGCACTTGGGGTTTGAAAGACCGGAGTCACCTAGTGCAG” the value was 15800 fluorescence intensity (a.u.); for “CTTTGCATCTCTTCTTTTCTTTCTTTTTTTTTTCTTTTCTCGGAGTCACCTAGTGCAG”, 12100 fluorescence intensity (a.u.). For “CCGGTCCGCGAGCGCGCTTGCTTCTTCTTCTCTATATATGCGGAGTCACCTAGTGCAG” the value was 13100 fluorescence intensity (a.u.); for “GTTTCTTGTCCCGTGTAGGAAAAATGCACTTCATTTCATCCGGAGTCACCTAGTGCAG”, 8250 fluorescence intensity (a.u.); for “TTTATGAAACTTTTAGGTTAGGTTTCATGGGTTTTCACTTCGGAGTCACCTAGTGCAG”, 9210 fluorescence intensity (a.u.). For “TGTGGATTGGTTTGGGGTGGATGCAGGCTGAGTAAAATAACGGAGTCACCTAGTGCAG” the value was 14300 fluorescence intensity (a.u.); for “ATCTTCGGGGTGGGTTACACATGCACAATTAACACGCTAGCGGAGTCACCTAGTGCAG”, 12200 fluorescence intensity (a.u.); for “TACGTTCATTTGATCATTTCATCTATTAGCATCGATTCTACGGAGTCACCTAGTGCAG”, 10700 fluorescence intensity (a.u.).

With “ATCCGTGTTCTGTTCTTCTTGCGGAGCAAGCCTGCATTCCCGGAGTCACCTAGTGCAG”, the binding signal is 8220 fluorescence intensity (a.u.). For “GCTCCGCGCGCCGCCTGCCTCTCGGTCGACAGCACAGTAACGGAGTCACCTAGTGCAG” the value was 8610 fluorescence intensity (a.u.); for “TTACCAAACTGAAAATAAAAATGTGTGTTTTTTTTAATATCGGAGTCACCTAGTGCAG”, 9410 fluorescence intensity (a.u.). For “CTTCTCCTCTAGTCTGTGGTTGGCTGGCGATGGTGGCTTGCGGAGTCACCTAGTGCAG” the value was 8820 fluorescence intensity (a.u.); for “GCAATGTAATTTTAATACAAATGTGCTGTAAATTAAATCACGGAGTCACCTAGTGCAG”, 8930 fluorescence intensity (a.u.). For “CCTAGTTCGAAACTTCACCCCTTCTAATTATTTGATATTACGGAGTCACCTAGTGCAG” the value was 8160 fluorescence intensity (a.u.); for “GCTCGCTGACTGCGCCGAGTTTTATTCCCTACCGCCGCTCCGGAGTCACCTAGTGCAG”, 9380 fluorescence intensity (a.u.); for “CTGCCTACCTCTATACCTGCTATCTCCGTTCGATCCGGGTCGGAGTCACCTAGTGCAG”, 8500 fluorescence intensity (a.u.). For the sequence “ACGTCAGAGGATCCCTTTCCCCTAAATAGGTCTTATACTGCGGAGTCACCTAGTGCAG”, the binding signal was 8540 fluorescence intensity (a.u.). “GCTAATTTGGGACATCTCAATCTCTCTTCCAATGGTTTTGCGGAGTCACCTAGTGCAG”: the binding signal is 8700 fluorescence intensity (a.u.).

For “CAGTATGCCACTTCCACTGTCCAACCTTGTCTTGTTAAGACGGAGTCACCTAGTGCAG”, the binding signal was 10300 fluorescence intensity (a.u.). For “GGCCTGTTTGGTAGTGTTTTCGGAACGCTTTGATGATTTACGGAGTCACCTAGTGCAG” the value was 9540 fluorescence intensity (a.u.); for “AAAATTCGATAGGTTTTTACTAATTCTCTACCTTTTCTATCGGAGTCACCTAGTGCAG”, 11100 fluorescence intensity (a.u.). For “TAGGGTCATGGTTTAGATTTCGATCACATTTGAGGGTCACCGGAGTCACCTAGTGCAG” the value was 8700 fluorescence intensity (a.u.).
